# In PubChem BioAssay AID2551 (National Center for Advancing Translational Sciences (NCATS), 2010):
# Amino acid sequences for entries named in this document (tags omitted). A change or cut given only in a name is not applied to a line headed by its entry.
# UniProt P51450: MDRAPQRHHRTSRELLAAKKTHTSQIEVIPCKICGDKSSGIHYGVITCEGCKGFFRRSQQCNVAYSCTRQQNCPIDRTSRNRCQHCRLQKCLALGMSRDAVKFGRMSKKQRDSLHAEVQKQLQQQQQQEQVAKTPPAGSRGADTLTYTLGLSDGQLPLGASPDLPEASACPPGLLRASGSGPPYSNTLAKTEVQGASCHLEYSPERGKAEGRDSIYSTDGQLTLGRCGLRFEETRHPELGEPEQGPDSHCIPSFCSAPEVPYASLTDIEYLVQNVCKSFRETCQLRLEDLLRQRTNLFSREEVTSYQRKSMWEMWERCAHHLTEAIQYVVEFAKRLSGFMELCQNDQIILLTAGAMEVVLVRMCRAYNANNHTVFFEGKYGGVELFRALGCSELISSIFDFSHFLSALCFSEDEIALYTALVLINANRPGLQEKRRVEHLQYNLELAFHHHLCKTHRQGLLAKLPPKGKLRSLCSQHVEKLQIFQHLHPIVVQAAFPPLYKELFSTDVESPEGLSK
# About 17,000 (5.5%) of roughly 310,000 compounds were called active. This list was built around the results that the source calls inconclusive (neither active nor inactive); the mix of calls is not that of the screen. The call rests on the fitted dose curve; in most records, active means well fitted inhibition curve with a large enough effect; inconclusive means small, poorly fitted or top-dose-only effect, or effect the other way; inactive means no such curve, though single readings can be large or run the other way. Where the call is inconclusive, the potency comes from a doubtful curve fit.
# Target: Nuclear receptor ROR-gamma (Mus musculus) (UniProt P51450)
# Assay: qHTS for inhibitors of ROR gamma transcriptional activity; further: nearly all actives have a fitted effect of over 60% in size
# Details: Drosophila S2 Gal4-RORgamma UAS-luciferase reporter, 20 h; activity change, negative = inhibition: at 53.6 µM (top of the series)
# Method in brief: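 Read-out: Photinus luciferase luminescence; inhibitors lower reporter signal. Insect Schneider cells with Gal4-ROR gamma fusion under metallothionein promoter, UAS reporter; 700 uM final copper sulfate induction, 20 hr, ambient temperature.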
# On the % scale 0 is the no-effect control and ±100 the full control effect; potency means the concentration at half of the fitted maximal effect.
SMILES,Potency,"activity change, negative = inhibition"
Cc1cc(C)c(NC(=O)CN2CCN(C)CC2)c(C)c1,"inconclusive: 3.16 µM [activator, partial curve]",–
CC1=NN(C(=O)c2csc(C)c2C)C(O)(C(F)(F)F)C1 (configuration not stated),active: 5.62 µM,–
COc1ccc2nc(NC(=O)Cn3cnc4ccccc4c3=O)sc2c1,"inconclusive: 6.31 µM [activator, single point]",–
O=C(Cn1c2[n+](c3ccc(C(F)(F)F)cc31)CCCCC2)Nc1ccccc1,–,inactive: 7.58% [at 10 µM]
CCCOc1ccc(-c2nc(OCC)c3ccccc3n2)cc1,"inconclusive: 35.5 µM [activator, single point]",–
O=C(CCCC(=O)N(CC(=O)NC1CCCCC1)CC1CCCO1)Nc1ccccn1 (configuration not stated),"inconclusive: 1.58 µM [inhibitor, partial curve]",–
O=C(c1cc(COc2cccc(C(F)(F)F)c2)on1)N1C[C@@H]2CCC[C@H]1C2,"inconclusive: 14.1 µM [activator, partial curve]",–
CCC(NC(=O)c1cc(COc2ccc(F)c(F)c2)on1)c1ccncc1 (configuration not stated),inactive,–
COCCNC(=O)CSc1nc2ccc(N3CCOCC3)cc2c(=O)n1CCc1ccccc1,active: 3.55 µM,–
Cc1ccsc1C(=O)NNC(=S)NCC(C)C,"inconclusive: 15.8 µM [inhibitor, partial curve, poor fit]",–
O=C(Nc1ccc(S(=O)(=O)N2CCCC2)cc1)c1ccc2c(=O)n3c(nc2c1)CCCCC3,"inconclusive: 2.82 µM [activator, partial curve]",–
COC(=O)c1ccc(C(NC(=O)OCc2ccccc2)/C(C)=C/[C@@H](C)C(=O)Nc2ccc(OC)cc2)cc1 (some centres not stated),"inconclusive: 14.1 µM [activator, single point]",–
CCOC(=O)NC1(NCc2ccccc2)Oc2ccccc2O1,"inconclusive: 20 µM [inhibitor, partial curve, poor fit]",–
COc1ccc(C(=O)Nn2c(SCC(=O)NCc3ccco3)nc3ccccc3c2=O)cc1,active: 10 µM,–
COc1cccc(N2CCN(CC(=O)Nc3nc4c(s3)CC(C)CC4)CC2)c1 (configuration not stated),inactive,–
COc1ccc(/C=N/Nc2cc(OC)ncn2)cc1,"inconclusive: 31.6 µM [inhibitor, single point]",–
CCN(C(=O)COC(=O)/C=C/c1ccc(S(=O)(=O)N2CCc3ccccc32)cc1)C1CCS(=O)(=O)C1 (configuration not stated),"inconclusive: 31.6 µM [activator, single point]",–
CCN1CCN(C(=O)NCc2ccccc2)CC1,inactive,–
COc1cc2c(cc1OC)CN(c1ccc(C(F)(F)F)cn1)CC2,"inconclusive: 20 µM [activator, partial curve]",–
COc1ccc(CNC(=O)COC(=O)CCCOc2ccc(Cl)cc2Cl)cc1,"inconclusive: 0.316 µM [inhibitor, full curve, poor fit]",–
C/C(=N/NC(=O)c1cc2ccccc2cc1O)C1C(=O)c2ccccc2C1=O,"inconclusive: 3.16 µM [inhibitor, single point]",–
CC1CN(CC(O)COc2ccccc2C(C)(C)C)CC(C)O1 (configuration not stated),"inconclusive: 0.126 µM [activator, single point]",–
O=C(O)c1ccccc1NS(=O)(=O)c1ccc2ccccc2c1,inactive,–
O=C(NNC(=S)Nc1ccccc1)c1cc(Br)ccc1Cl,active: 0.794 µM,–

SMILES,Potency,"activity change, negative = inhibition"
COc1ccc(C2=NN(C(=O)CN3CCOCC3)C(c3nc4ccccc4[nH]3)C2)cc1 (configuration not stated),"inconclusive: 6.31 µM [inhibitor, single point]",–
O=C(NC(=S)N(CCO)Cc1ccccc1)c1ccc(F)cc1Cl,active: 0.562 µM,–
Cc1ccc(-c2cc(C(=O)NCCCN3CCOCC3)no2)cc1,"inconclusive: 15.8 µM [inhibitor, single point]",–
O=c1c(Cl)c(NCCCO)cnn1-c1nc2ccccc2[nH]1,active: 5.01 µM,–
Cc1ccccc1NC(=S)N(Cc1ccco1)C(C)c1cccs1 (configuration not stated),"inconclusive: 15.8 µM [inhibitor, single point]",–
CCOC(=O)c1sc(NC(=O)CSc2nnc(Cc3ccccc3)o2)c(C(=O)OCC)c1C,"inconclusive: 3.16 µM [inhibitor, full curve]",–
Cc1ccc(CN2CCC(n3nccc3NC(=O)CCOc3ccccc3)CC2)o1,"inconclusive: 10 µM [inhibitor, partial curve, poor fit]",–
COc1cc2c(C(=O)N3CCN(c4cccc(Cl)c4)CC3)cn(C)c(=O)c2cc1OC,"inconclusive: 6.31 µM [inhibitor, single point]",–
Cc1cccc(C)c1NCc1n[nH]c(=S)n1-c1ccccc1,active: 2 µM,–
COc1cccc(NC(=O)c2ccc3c(c2)C(=O)N(CC2CCCO2)C3=O)c1 (configuration not stated),"inconclusive: 14.1 µM [inhibitor, single point]",–
Clc1ccc(C[n+]2cc(-c3ccccc3)n3c2CCCCC3)c(Cl)c1,"inconclusive: 3.16 µM [inhibitor, single point]",–
CC1CCCCC1Nc1ncnc2sccc12 (configuration not stated),"inconclusive: 31.6 µM [activator, single point]",–
CSc1ccc(-c2sc(Nc3ccccc3)n[n+]2-c2ccc(F)cc2)cc1,"inconclusive: 35.5 µM [inhibitor, single point]",–
O=C(NCc1ccccc1)c1ccc(OC2CSC2)cc1,–,inactive: -4.67% [at 0.365 µM]
CCCN1C2=NCCN2c2cc(C)c(C)cc21,"inconclusive: 3.98 µM [inhibitor, partial curve]",–
Cc1nc2ncnn2c(N2CCCC(C(=O)Nc3ccc4c(c3)CCC4)C2)c1C (configuration not stated),inactive,–
O=C(Cc1cccs1)Nc1nc(-c2ccc(F)cc2F)cs1,inactive,–
O=C(CCSc1ccccc1)Nc1nnc(-c2ccccc2)o1,active: 10 µM,–
COC(=O)c1c(C(=O)OC)n(CCCN)c2ccc(C)cc12,inactive,–
COc1ccc(CC2SC(=Nc3ccc(F)cc3)NC2=O)cc1 (configuration not stated),"inconclusive: 35.5 µM [inhibitor, single point]",–
O=C(CCSc1ccccc1)Nc1nnc(-c2cccs2)o1,active: 4.47 µM,–
O=C(Nc1ccc2nc(-c3cccs3)[nH]c2c1)c1ccco1,"inconclusive: 0.794 µM [activator, partial curve]",–
O=C(O)CC/C(=N/Nc1ncc(C(F)(F)F)cc1Cl)C(=O)O,active: 12.6 µM,–
O=C(Oc1cc(Cl)ccc1Cl)c1ccc(N2CCOCC2)c([N+](=O)[O-])c1,inactive,–

# Entries of single compounds as entered above.
# Cc1cccc(C)c1NCc1n[nH]c(=S)n1-c1ccccc1 is listed as Potency: active: 2 µM
# CSc1ccc(-c2sc(Nc3ccccc3)n[n+]2-c2ccc(F)cc2)cc1 is listed as Potency: inconclusive: 35.5 µM [inhibitor, single point]

# Further results.

SMILES,Potency,"activity change, negative = inhibition"
CN(Cc1ccccc1)C(=O)c1[nH]cnc1C(=O)N[C@@H](CCCCNC(=O)OC(C)(C)C)C(=O)OC(C)(C)C,active: 7.08 µM,–
COc1ccc(N2CCN(C(=O)COc3ccc(S(=O)(=O)N4CCOCC4)cc3C)CC2)cc1,"inconclusive: 6.31 µM [activator, full curve, poor fit]",–
c1ccc(C2=Nc3ccccc3NC(c3ccccc3)C2)cc1 (configuration not stated),"inconclusive: 35.5 µM [inhibitor, single point]",–
COCC(C)n1c(C)cc(C(=O)CSc2ccc(NC(C)=O)cc2)c1C (configuration not stated),"inconclusive: 5.01 µM [activator, single point]",–
CCOc1ccc2nc(NC(=O)CSc3nc4cccnc4n3C)sc2c1,"inconclusive: 35.5 µM [inhibitor, single point]",–
NC[C@@H]1O[C@@H](O[C@H]2[C@H](O)[C@@H](O[C@@H]3O[C@@H](CO)[C@H](O)[C@@H](N)[C@@H]3O)[C@H](N)C[C@@H]2N)[C@@H](O)[C@H](O)[C@H]1O,inactive,–
CCc1nnc(NS(=O)(=O)c2ccc(N)cc2)s1,inactive,–
O=C(NCCc1csc(-c2ccc(Cl)cc2)n1)c1ccco1,"inconclusive: 25.1 µM [activator, single point]",–
CCOC(=O)c1cnc2ccccc2c1Nc1cccc(C(=O)O)c1,inactive,–
CN1C(=O)C(=O)/C(=C(/O)c2ccc(Br)cc2)C1c1ccccc1F (configuration not stated),inactive,–
COc1ccc(C(C)NS(=O)(=O)Cc2ccccc2)cc1 (configuration not stated),inactive,–
O=C(O)CSc1ccccn1,"inconclusive: 31.6 µM [activator, single point]",–
Cc1ccc(-n2nc3c(c2NC(=O)c2ccco2)CS(=O)C3)cc1 (configuration not stated),inactive,–
CC(=O)N1c2ccc(S(=O)(=O)NCC3CCC(C(=O)Nc4cc(C)ccn4)CC3)cc2CC1C (configuration not stated),"inconclusive: 35.5 µM [inhibitor, single point]",–
Cc1ccc(C)c(S(=O)(=O)Nc2ccc3scnc3c2)c1,"inconclusive: 25.1 µM [inhibitor, single point]",–
O=C(Nc1ccc(OC(F)F)cc1)c1ccccn1,inactive,–
O=C(/C=C/c1ccccc1)NC(=S)NNC(=O)Cc1cccs1,active: 2.51 µM,–
O=C(c1ccc(NS(=O)(=O)c2cccc3cccnc23)cc1)N1CCCCC1,"inconclusive: 20 µM [activator, single point]",–
O=C(Nc1nc(-c2cccs2)c(-c2ccccc2)s1)c1ccco1,"inconclusive: 17.8 µM [inhibitor, single point]",–
Cc1cc(N/N=C/c2ccc(O)cc2)nc(NS(=O)(=O)c2ccccc2)n1,inactive,–
C/C(=N\NC(=O)C(C)Nc1cccc(Cl)c1)c1ccc([N+](=O)[O-])cc1 (configuration not stated),"inconclusive: 5.62 µM [activator, partial curve]",–
COc1cccc(CNC(=O)C2CCCN(c3ncnc4c3nc3n4CCCCC3)C2)c1 (configuration not stated),inactive,–
CCOC(=O)N1CCN(S(=O)(=O)c2ccc3c(c2)SC(C)C(=O)N3)CC1 (configuration not stated),"inconclusive: 35.5 µM [activator, single point]",–
CCn1c(COc2ccccc2C)nnc1SCC(=O)CC(=O)Nc1ccccc1,active: 7.08 µM,–

# Reformatted: entries from further up
SMILES	Potency	activity change, negative = inhibition
Cc1ccc(C)c(S(=O)(=O)Nc2ccc3scnc3c2)c1	inconclusive: 25.1 µM [inhibitor, single point]	–
O=C(Nc1ccc(OC(F)F)cc1)c1ccccn1	inactive	–
O=C(/C=C/c1ccccc1)NC(=S)NNC(=O)Cc1cccs1	active: 2.51 µM	–
